# Results: patent US11827622B2, “Crystalline forms of imidacloprid and methods of use thereof” (New York University, priority 2020, dated 2023)
# Legend:
# Type in all cases: in vivo
# Conditions in all cases: logistic regression of knockdown-time curve
# [1] = test system: Anopheles quadrimaculatus; assay: Lethality (knockdown time) on contact with IMI polymorph microcrystals in petri dish, Anopheles mosquitoes
# Protocol: (§1) Lethality measurements for IMI polymorphs. Microcrystals of IMI Forms I, IV, VI, and IX were prepared by grinding respective single crystals using a mortar and pestle. Their compositions were then analyzed by powder X-ray diffraction (PXRD). Lethality measurements were performed in triplicate for each solid-state form, each accompanied by three controls (no insecticide). 2.0 mg of microcrystals was added to a 35 mm diameter polystyrene petri dish, which was subsequently shaken to disperse the microcrystals throughout the petri dish. Microcrystals was added to a polystyrene petri dish (2.000 mg microcrystals per 35 mm diameter dish for fruit flies; 0.100 mg microcrystals per 100 mm diameter dish for mosquitoes), which was subsequently shaken to disperse the microcrystals throughout the petri dish. Adult mosquitoes (Ae. aegypti, A. quadrimaculatus or C. quinquefasciatus) or fruit flies (D. melanogaster) were sedated with carbon dioxide and 30 female mosquitoes or 20 flies were transferred to each petri dish. The top of the dish was then placed over the bottom and the motion of the insects was recorded with a video camera (Sony HDR-CX455). The knockdown time was measured for each individual insect, with knockdown associated with an insect laying on the bottom surface of the petri dish in a supine position without moving from its original position after 10 seconds.
# (§2) Statistical analyses. Logistic regression of knockdown-time curves was preformed to obtain the median knockdown time (KT50) of the test flies and mosquitoes, the 95% confidence intervals (CI), slopes, and standard errors (SE) using Qcal software.
# Drosophila melanogaster = assay: Lethality (knockdown time) on contact with IMI polymorph microcrystals in petri dish, fruit flies
# Protocol: as §1, §2
# IMI Forms IX, VI, IV were selected for lethality comparison with the commercial Form I, collectively representing a quartet spanning a wide range of free energies. […] A video camera was used to record the knockdown times—a proxy for lethality—for each insect. KT50 values, the times required for 50% of the insects to become immobile and supine, were calculated by logistic regression of knockdown-time curves (FIGS. 34A-34P). Shorter KT50 values correspond to greater lethality. Accordingly, Forms IX, VI and IV were 5.7, 2.5 and 1.8 times faster-acting than Form I.
# Culex quinquefasciatus = assay: Lethality (knockdown time) on contact with IMI polymorph microcrystals in petri dish, Culex mosquitoes
# Protocol: as §1, §2
Compound,Slope ± SE [1],Slope ± SE (Drosophila melanogaster),Intercept ± SE (Culex quinquefasciatus),Slope ± SE (Culex quinquefasciatus)
"O=[N+]([O-])N=C1NCCN1Cc1ccc(Cl)nc1 [Form I, 1-[(6-chloro-3-pyridinyl)-methyl]-N-nitro-2-imidazolidinimine, reference compound]",5.12 ± 0.22,2.21 ± 0.13,−47.20 ± 2.18,7.43 ± 0.34
"O=[N+]([O-])N=C1NCCN1Cc1ccc(Cl)nc1 [Form IV, 1-[(6-chloro-3-pyridinyl)-methyl]-N-nitro-2-imidazolidinimine]",4.30 ± 0.15,1.37 ± 0.06,−67.03 ± 2.37,11.68 ± 0.41
"O=[N+]([O-])N=C1NCCN1Cc1ccc(Cl)nc1 [Form IX, 1-[(6-chloro-3-pyridinyl)-methyl]-N-nitro-2-imidazolidinimine]",3.68 ± 1.34,1.42 ± 0.05,−21.09 ± 0.82,4.70 ± 0.18
"O=[N+]([O-])N=C1NCCN1Cc1ccc(Cl)nc1 [Form VI, 1-[(6-chloro-3-pyridinyl)-methyl]-N-nitro-2-imidazolidinimine]",5.81 ± 0.23,1.30 ± 0.05,−25.32 ± 0.95,4.82 ± 0.18
